These are yes or no findings as the source states them, for the method shown. In cells and extracts the contact can be indirect. Some entries that bind do so weakly or less than the wild type.
What was measured:
[1] = molecular target: Myc-tagged BRCA1, full length (UniProt P38398); assay: co-IP; Myc-BRCA1 (full length or deletion mutants) co-expressed with FLAG-Parkin (Wt or deletion mutants); anti-Myc antibody, Protein G magnetic beads; blot for FLAG-Parkin; whole-cell lysate or nuclear extract not told
Myc-BRCA1 Δ1-167 = Myc-BRCA1 Δ1-167 (UniProt P38398); assay: as above
[2] = molecular target: Myc-tagged BRCA1, full length (UniProt P38398); assay: co-IP; nuclear extracts of HEK293T cells transduced with Myc-BRCA1 and FLAG-Parkin expression vectors, treated with MG132; anti-Myc antibody 16 h, Protein G magnetic beads; blots for Myc-BRCA1, Ub and FLAG-Parkin

Chains of the proteins cited; added tags and fusions are not shown.
UniProt O60260: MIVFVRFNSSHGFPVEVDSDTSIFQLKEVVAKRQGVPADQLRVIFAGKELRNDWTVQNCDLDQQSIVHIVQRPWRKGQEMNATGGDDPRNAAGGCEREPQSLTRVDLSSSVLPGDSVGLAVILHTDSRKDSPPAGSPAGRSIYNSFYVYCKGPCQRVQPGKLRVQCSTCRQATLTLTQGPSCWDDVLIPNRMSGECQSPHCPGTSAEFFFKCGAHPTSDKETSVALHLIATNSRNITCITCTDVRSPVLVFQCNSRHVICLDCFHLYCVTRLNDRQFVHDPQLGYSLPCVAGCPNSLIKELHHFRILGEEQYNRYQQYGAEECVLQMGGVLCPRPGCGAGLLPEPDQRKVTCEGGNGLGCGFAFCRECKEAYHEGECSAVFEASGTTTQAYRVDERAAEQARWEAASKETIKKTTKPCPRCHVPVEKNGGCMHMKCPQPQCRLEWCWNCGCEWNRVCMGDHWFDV

binding [1]: binds
binding (Myc-BRCA1 Δ1-167): binds
binding [2]: binds
Substance: wild type FLAG-tagged Parkin (from UniProt O60260 1-465) (enzyme)
